Results: publication PMC4519324, “Substrate Specificity, Inhibitor Selectivity and Structure-Function Relationships of Aldo-Keto Reductase 1B15: A Novel Human Retinaldehyde Reductase” (PLoS ONE, 2015)
These are yes or no findings as the source states them, for the method shown.

Sequences of proteins named here, by UniProt entry; tags and fusion partners are left off. A change or cut given only in a name is not applied to a line headed by its entry.
UniProt C9JRZ8: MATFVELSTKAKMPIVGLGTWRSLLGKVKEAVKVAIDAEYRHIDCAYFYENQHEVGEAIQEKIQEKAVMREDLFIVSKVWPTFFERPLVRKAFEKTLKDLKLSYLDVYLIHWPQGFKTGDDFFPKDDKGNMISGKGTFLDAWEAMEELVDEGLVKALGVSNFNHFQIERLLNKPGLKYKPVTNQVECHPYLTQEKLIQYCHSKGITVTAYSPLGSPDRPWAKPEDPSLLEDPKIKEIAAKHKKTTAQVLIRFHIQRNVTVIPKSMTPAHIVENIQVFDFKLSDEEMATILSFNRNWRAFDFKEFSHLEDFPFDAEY

Target: Human aldo-keto reductase 1B15 (AKR1B15.1) (human) (UniProt C9JRZ8)
Experiment: SEC; Superdex 75 10/300 GL in storage buffer (200 mM potassium phosphate, pH 7.4, 5 mM EDTA, 5 mM DTT); AKR1B15 from the chaperone co-expressing strain, no sarkosyl; both purified

binding: no binding
Substance: Human aldo-keto reductase 1B15 (AKR1B15.1) (from UniProt C9JRZ8-1 1-316) (enzyme)
